According to paper PMC11992055, “Identification of RING E3 pseudoligases in the TRIM protein family” (Nature Communications, 2025):
Results are given in words; binding and its absence hold for the method and conditions named. In cells and extracts the contact can be indirect. Here binding means that the protein was enriched with, or labelled near, the bait; the list need not be complete. A no says only that the protein was not detected with the bait.

By UniProt entry, the sequences of proteins in these tests, tags left out.
UniProt Q8IYM9: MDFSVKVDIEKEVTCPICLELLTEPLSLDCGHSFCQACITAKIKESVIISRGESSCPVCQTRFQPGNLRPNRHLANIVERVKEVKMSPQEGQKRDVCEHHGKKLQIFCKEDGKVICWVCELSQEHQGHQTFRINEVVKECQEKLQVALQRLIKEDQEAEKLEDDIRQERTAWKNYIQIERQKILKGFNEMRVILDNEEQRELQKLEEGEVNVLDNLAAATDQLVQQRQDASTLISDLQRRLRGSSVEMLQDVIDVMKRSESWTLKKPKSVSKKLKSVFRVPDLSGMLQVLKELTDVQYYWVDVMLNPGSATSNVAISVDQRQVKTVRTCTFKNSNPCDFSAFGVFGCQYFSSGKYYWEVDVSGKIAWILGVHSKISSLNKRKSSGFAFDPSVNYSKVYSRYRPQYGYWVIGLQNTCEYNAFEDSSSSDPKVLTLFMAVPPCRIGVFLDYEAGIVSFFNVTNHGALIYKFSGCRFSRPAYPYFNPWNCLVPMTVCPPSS
UniProt Q9C030: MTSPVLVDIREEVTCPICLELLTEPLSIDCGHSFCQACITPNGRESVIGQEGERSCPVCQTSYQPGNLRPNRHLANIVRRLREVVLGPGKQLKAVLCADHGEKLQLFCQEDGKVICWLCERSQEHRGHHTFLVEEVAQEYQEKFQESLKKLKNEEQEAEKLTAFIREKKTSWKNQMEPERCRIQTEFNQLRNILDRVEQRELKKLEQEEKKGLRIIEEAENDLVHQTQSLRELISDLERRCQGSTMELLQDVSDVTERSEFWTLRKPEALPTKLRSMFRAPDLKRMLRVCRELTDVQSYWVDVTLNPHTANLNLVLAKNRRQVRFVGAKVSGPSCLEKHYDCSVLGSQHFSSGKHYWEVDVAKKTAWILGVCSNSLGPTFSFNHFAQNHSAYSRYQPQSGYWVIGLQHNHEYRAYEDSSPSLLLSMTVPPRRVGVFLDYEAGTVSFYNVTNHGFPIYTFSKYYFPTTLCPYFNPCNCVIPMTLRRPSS
UniProt P19474: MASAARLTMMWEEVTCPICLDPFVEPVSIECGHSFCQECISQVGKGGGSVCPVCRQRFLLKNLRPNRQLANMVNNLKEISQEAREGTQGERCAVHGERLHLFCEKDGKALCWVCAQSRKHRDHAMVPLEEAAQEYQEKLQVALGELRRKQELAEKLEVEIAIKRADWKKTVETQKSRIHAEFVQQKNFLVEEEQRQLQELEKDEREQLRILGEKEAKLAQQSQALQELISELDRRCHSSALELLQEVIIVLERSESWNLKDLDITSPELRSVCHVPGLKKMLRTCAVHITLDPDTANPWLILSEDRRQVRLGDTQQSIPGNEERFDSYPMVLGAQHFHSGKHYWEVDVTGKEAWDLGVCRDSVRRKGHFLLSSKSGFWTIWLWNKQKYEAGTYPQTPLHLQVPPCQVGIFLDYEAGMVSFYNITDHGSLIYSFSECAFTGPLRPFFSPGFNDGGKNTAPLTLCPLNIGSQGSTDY

How the values were obtained:
FLAG-TRIM22 (human) = FLAG-TRIM22 (human) (UniProt Q8IYM9); assay: affinity purification with mass spectrometry; FLAG-TRIM6 or FLAG-TRIM22 (or empty vector) in HEK293T, untreated or 18 h 5000 units/ml IFN-β; anti-FLAG cross-linked to Protein A/G beads; 0.5% IGEPAL, 100 mM KCl, 50 mM Tris pH 7.5, 5 mM MgCl2; DIA mass spectrometry
FLAG-TRIM6 (human) = FLAG-TRIM6 (human) (UniProt Q9C030); assay: as above

binding (FLAG-TRIM22 (human)): no binding
binding (FLAG-TRIM6 (human)): no binding
Substance: TRIM21 (IFN-β-induced) (from UniProt P19474 1-475)
